{"source": "PubChem BioAssay AID504834", "about": "(National Center for Advancing Translational Sciences (NCATS), 2011)", "note": "In all, about 320,000 compounds went through this assay and about 22,000 (6.9%) were called active. This list was built around the results that the source calls inconclusive (neither active nor inactive); the mix of calls is not that of the screen. Calls come from the whole dose curve; as a rule, active = well fitted inhibition curve with a large enough effect; inconclusive = small, poorly fitted or top-dose-only effect, or another doubt; inactive = no such curve, though single readings can be large or run the other way. Potencies of inconclusive entries are doubtful fits and often do not repeat. Potency is the fitted concentration of half-maximal effect.", "data": [{"assay": "Primary qHTS for delayed death inhibitors of the malarial parasite plastid, 96 hour incubation", "settings": "P. falciparum luciferase reporter growth; series mostly up to 28.7 µM", "in_short": "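Infected RBCs, 2% Hct / 0.05% parasitemia final; luciferase-reporter P. falciparum; cpd 96 h, 37 C, 5% CO2; luciferase detection reagent; luminescence.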", "values": [{"smiles": "N#CCc1c(C#N)c(N)nc(N2CCN(S(=O)(=O)c3ccccc3)CC2)c1C#N", "Potency": "inconclusive: 18.5 µM [inhibitor, single point]"}, {"smiles": "CCOc1ccccc1N1CCN(C(=O)c2cc3cc(OC)ccc3[nH]2)CC1", "Potency": "inconclusive: 9.28 µM [inhibitor, partial curve]"}, {"smiles": "C=C(C)c1cccc(C(C)(C)NC(=O)NCc2cccnc2)c1", "Potency": "inconclusive: 2.62 µM [inhibitor, partial curve]"}, {"smiles": "C=CCn1c(C(CCCC)CC(O)COCC(C)C)n[nH]c1=S", "note": "(stereo not drawn)", "Potency": "inactive"}, {"smiles": "Cc1ccccc1NS(=O)(=O)c1ccc(C(=O)NN2CCCCC2)cc1", "Potency": "inconclusive: 10.4 µM [inhibitor, single point]"}, {"smiles": "Cc1ccc(NC(=S)Nc2cccc3ccccc23)cc1", "Potency": "inactive"}, {"smiles": "CCOc1ccc(NC(=S)Nc2ccc(Br)cc2Cl)cc1", "Potency": "inactive"}, {"smiles": "OC(COC(c1ccc(Cl)cc1)c1ccc(Cl)cc1)CN1CCN(c2ccccn2)CC1", "note": "(stereo not drawn)", "Potency": "inconclusive: 20.8 µM [inhibitor, partial curve, poor fit]"}, {"smiles": "Cc1ccc(NS(=O)(=O)c2ccc3c(c2)n(C)c(=O)n3C)cc1", "Potency": "inconclusive: 18.5 µM [inhibitor, single point]"}, {"smiles": "COc1ccccc1CNC(=O)C1CCN(S(=O)(=O)c2ccc3c(c2)C(C)(C)C(=O)N3C)CC1", "Potency": "inconclusive: 18.5 µM [inhibitor, single point]"}, {"smiles": "O=C(/C=C/c1ccccc1)NC1CC2CCC1C2", "note": "(stereo not drawn)", "Potency": "inactive"}, {"smiles": "COc1ccc(-n2cc(C(=O)c3cc(Cl)ccc3O)cc(C#N)c2=O)cc1", "Potency": "active: 7.38 µM"}, {"smiles": "CC(C(=O)O)N1C(=O)/C(=C/c2cccn2C)SC1=S", "note": "(stereo not drawn)", "Potency": "inactive"}, {"smiles": "CCOc1ccc(S(=O)(=O)N2CCC(C(=O)OCc3ccc(OC)cc3)CC2)cc1", "Potency": "inactive"}, {"smiles": "O=C(Nc1ccc2c(c1)OCO2)C1CCCN1C(=O)NCc1ccccc1", "note": "(stereo not drawn)", "Potency": "inconclusive: 11.7 µM [inhibitor, single point]"}, {"smiles": "O=C(Nc1ccccc1-c1nc2ccccc2s1)C1=COCCO1", "Potency": "inactive"}, {"smiles": "COCc1nnc(NC(=O)CSc2ccc(C)cc2)s1", "Potency": "inconclusive: 18.5 µM [inhibitor, single point]"}, {"smiles": "Cc1ccc(-n2[nH]c(C)c(C=Nc3ccc(S(=O)(=O)Nc4nccs4)cc3)c2=O)cc1C", "Potency": "inconclusive: 14.7 µM [inhibitor, partial curve, poor fit]"}, {"smiles": "CC(=O)Nc1cccc(-c2nc3ccccc3s2)c1", "Potency": "inconclusive: 18.5 µM [inhibitor, single point]"}, {"smiles": "O=C(Nc1cc(=O)[nH]c2nc(-c3ccccc3)nn12)c1ccc(Cl)cc1", "Potency": "inactive"}, {"smiles": "c1ccc(-c2csc3ncnc(N4CCc5ccccc5C4)c23)cc1", "Potency": "active: 11.7 µM"}, {"smiles": "C=CCNc1nc(N2CCOCC2)nc(N2CCOCC2)n1", "Potency": "active: 13.1 µM"}, {"smiles": "O=C(c1cccc(N2CCCC2=O)c1)N1CCOCC1", "Potency": "active: 6.57 µM"}, {"smiles": "Cc1[nH]c2ccccc2c1/C=N/Nc1ccc([N+](=O)[O-])cc1", "Potency": "inactive"}, {"smiles": "O=C(NC1CCS(=O)(=O)C1)c1cccc(S(=O)(=O)N2CCOCC2)c1", "note": "(stereo not drawn)", "Potency": "inconclusive: 7.38 µM [inhibitor, partial curve, poor fit]"}, {"smiles": "CCN(CC(=O)Nc1ccc(OC)cc1)C(=O)c1ccc(=O)n(Cc2ccccc2)n1", "Potency": "inconclusive: 18.5 µM [inhibitor, single point]"}, {"smiles": "COc1ccc(N(CC(=O)N2CCc3ccccc3C2)S(=O)(=O)c2c(C)[nH]c(=O)[nH]c2=O)cc1", "Potency": "inconclusive: 11.7 µM [inhibitor, single point]"}, {"smiles": "CC=C(/C(=C/C)c1ccc(O)cc1)c1ccc(O)cc1", "Potency": "inconclusive: 0.228 µM [inhibitor, full curve, poor fit]"}, {"smiles": "COc1ccc(/C=C2\\CN(Cc3ccccc3)C/C(=C\\c3ccc(OC)cc3OC)C2=O)c(OC)c1", "Potency": "inconclusive: 13.1 µM [inhibitor, single point]"}, {"smiles": "Cc1c(C(=O)NCCO)sc2nc3n(c(=O)c12)CCC3", "Potency": "inactive"}, {"smiles": "COc1cc(NC(=O)CCC(=O)c2cccs2)cc(OC)c1", "Potency": "inconclusive: 18.5 µM [inhibitor, single point]"}, {"smiles": "COc1cc(/C=N/N(C)C)ccc1OC(=O)c1ccco1", "Potency": "inactive"}, {"smiles": "CCOc1ccccc1NC(=O)CCn1c(=O)oc2ccccc21", "Potency": "active: 6.57 µM"}, {"smiles": "N#CC[N+]1(CCCNP2(=O)C=C(c3ccccc3)OC(c3ccccc3)=C2)CCOCC1", "Potency": "inconclusive: 0.0586 µM [inhibitor, full curve, poor fit]"}, {"smiles": "Cc1ccc(COc2coc(CN3CCN(C(=O)c4ccco4)CC3)cc2=O)cc1", "Potency": "inconclusive: 13.1 µM [inhibitor, partial curve]"}, {"smiles": "CC(C)C(NC(=O)C1CCCCC1)C(=O)NC1=NCCS1", "note": "(stereo not drawn)", "Potency": "inactive"}, {"smiles": "COc1ccc(C(c2c(NC(C)=O)sc3c2CCCC3)N2CCN(CCO)CC2)cc1OC", "note": "(stereo not drawn)", "Potency": "inconclusive: 9.28 µM [inhibitor, partial curve]"}, {"smiles": "CCOc1cc(-c2nc(C)c(C(C)=O)n2O)ccc1OCC(=O)Nc1cccc(C)c1", "Potency": "inactive"}, {"smiles": "Cn1cnc(C(=O)N2CCN(c3ccccc3)CC2)c1C(=O)N1CCN(c2ccccc2)CC1", "Potency": "inactive"}, {"smiles": "O=C(c1ccc(S(=O)(=O)c2ccccc2Cl)c([N+](=O)[O-])c1)N1CCCCCC1", "Potency": "active: 13.1 µM"}, {"smiles": "Cc1ccc(S(=O)(=O)N(C)Cc2cc3cc(C)ccc3[nH]c2=O)cc1", "Potency": "inconclusive: 18.5 µM [inhibitor, single point]"}, {"smiles": "COc1ccccc1-c1nc2ccccc2nc1-c1ccccc1", "Potency": "inactive"}, {"smiles": "CCOC(=O)C1CCN(C(=S)NC2CC3C=CC2C3)CC1", "note": "(stereo not drawn)", "Potency": "inactive"}, {"smiles": "COc1ccc(CCC(=O)Nc2cccc(Cl)c2)cc1", "Potency": "inactive"}, {"smiles": "O=C(COc1ccc(/C=N/NC(=O)c2ccncc2)cc1)Nc1ccccc1", "Potency": "inactive"}, {"smiles": "COc1ccccc1C(CNC(=O)CN(C)S(=O)(=O)c1ccc(C)cc1)N1CCCC1", "note": "(stereo not drawn)", "Potency": "inconclusive: 18.5 µM [inhibitor, single point]"}, {"smiles": "COc1cccc(NC2c3ccccc3C(=O)N2Cc2ccccc2Cl)c1", "note": "(stereo not drawn)", "Potency": "inconclusive: 18.5 µM [inhibitor, single point]"}, {"smiles": "COc1ccc(NC(=O)/C(=C\\c2ccccc2)NC(=O)c2ccco2)cc1", "Potency": "inactive"}]}]}
